Patent publication US9443060B2, “Method and system to provide personalized pharmaceutical compositions and dosages” (Volant Holdings GMBH, priority 2009, dated 2016)
Like-named read-outs stand apart in the source and are kept apart here. At least one compound was matched to its structure with a doubt left.

Key:
[1] = test system: intestinal carbohydrate absorption; conditions: cited from earlier work; for malabsorption of the glucose moiety of sucrose: Radziuk, 100 g oral sucrose load
insulin resistance (IR) = conditions: cited from earlier work
caloric intake = conditions: cited from earlier work
[2] = test system: peripheral glucose uptake (PGU); conditions: cited from earlier work
[3] = test system: peripheral insulin exposure (PIE); conditions: cited from earlier work; for FPI / mean insulin concentration during a 2 h OGTT: Miyazaki and DeFronzo, 3 months; for FPI: rosiglitazone 8 mg daily (before 18±1), pioglitazone (before 15±1); for mean insulin concentration during a 2 h OGTT: rosiglitazone 8 mg daily (before 37±4), pioglitazone
[4] = test system: hepatic glucose uptake (HGU); conditions: cited from earlier work
[5] = test system: hepatic gluconeogenesis (GNG); conditions: cited from earlier work; for fasting endogenous glucose production: pioglitazone 45 mg daily 16 weeks (before 13.1±0.3), rosiglitazone 8 mg daily 12 weeks (before 18.6±0.9); for fasting GNG contribution: pioglitazone 45 mg daily 16 weeks (before 73.1±[…]), rosiglitazone 8 mg daily 12 weeks (before 67±4%)
[6] = test system: hepatic glucose uptake (HGU); experiment: Glucose supply and insulin demand model: effect on hepatic glucose uptake; assay type: in vivo, human; conditions: adjustment factor = increase in hepatic glucose uptake at the therapeutic dose of Table 1; T2D
Method: (§1) Therapeutic targets of the glucose supply (CE, 1+2; HGU, 3; GNG, 4; IR, 5) and insulin demand (PGU, 6; PIE, 7) model are presented in FIG. 1. To identify quantitative differences between antidiabetic agents on CE, HGU, GNG, IR, PGU, and PIE, multidatabase searches (Cochrane Central Register of Controlled Trials and Cochrane Register of Systematic Reviews, Embase, OVID Healthstar, OVID Journals, and PubMed) were conducted cross-referencing title and keywords for all selected antidiabetic therapies and their respective targets.
(§2) Alpha-glucosidase, biguanide, and thiazolidinedione (TZD) studies with long-term, pre-post design at maximal therapeutic doses were identified to simulate chronic administration. To maintain consistency with cardiovascular trials and accommodate known influences of hyperglycemia and hyperinsulinemia on the respective targets,^13-16 studies including patients with HbA1c in the range of 6-8% and body mass index (BMI)≧30 kg/m^2 were preferentially selected. […] Carbohydrate exposure was determined as the combined effect of caloric intake and intestinal carbohydrate absorption. […] Because GNG is known to be enhanced in the fasting state and persistent throughout the prandial phase,^17,18 effect was determined during the fasting state and considered equivalent throughout the prandial phase. […]

[7] = test system: peripheral glucose uptake (PGU); experiment: Glucose supply and insulin demand model: effect on peripheral glucose uptake; assay type: in vivo, human; conditions: adjustment factor = increase in peripheral glucose uptake at the therapeutic dose of Table 1; T2D
Method: as §1, §2

[8] = Meneilly, acarbose 50-100 mg three times daily, 52 weeks, not significant
[9] = Meneilly, acarbose 100 mg three times daily, 12 months
[10] = Deeg, same design, pioglitazone (before 8.3), rosiglitazone (before 7.9)
[11] = Goldberg, 12 weeks, pioglitazone 45 mg daily (before 8.2±0.3), rosiglitazone 4 mg twice daily (before 7.8±0.4)
[12] = Inzucchi, troglitazone 400 mg daily, 12 weeks

## C[C@H]1O[C@H](O[C@H]2[C@H](O)[C@@H](O)[C@@H](O[C@H]3[C@H](O)[C@@H](O)C(O)O[C@@H]3CO)O[C@@H]2CO)[C@H](O)[C@@H](O)[C@@H]1N[C@H]1C=C(CO)[C@@H](O)[C@H](O)[C@H]1O (some centres unmarked) [Acarbose]
[1]; acarbose 50 mg, overnight-fasted subjects
  malabsorption of the glucose moiety of sucrose: 6%
[1]; acarbose 100 mg
  malabsorption of the glucose moiety of sucrose: approximately 30%
[1]; acarbose 150 mg
  malabsorption of the glucose moiety of sucrose: approximately 66%
[1]; Sobajima, acarbose 50-100 mg three times daily, 2 months
  carbohydrate malabsorption, measured by hydrogen excretion: 31.6 % of baseline
Insulin resistance (IR); Calle-Pascual, acarbose, same dose, 16 weeks
  reduction in IR (HOMAIR): ~27%
Insulin resistance (IR); Delgado, acarbose 100 mg daily, 16 weeks
  reduction in IR: ~15%
Insulin resistance (IR); Hanefeld, Fischer, acarbose
  alterations in IR: no significant alterations in IR
Insulin resistance (IR); Meneilly, after 12 months of acarbose, baseline 6.1±0.5
  IR (HOMAIR): 5.0±0.5
Caloric intake; [8]
  change in proportion of calories as carbohydrate: −0.7±0.8%
  change in proportion of calories as fat: 0.9±0.8%
  change in proportion of calories as protein: −0.5±0.5%
  change in total caloric intake: 90 ± 50 kcal
[2]; Fischer, acarbose 300 mg daily, 16 weeks, euglycemic hyperinsulinemic clamp, 3.2 versus 2.3, nonsignificant increase
  glucose disposal rate: 3.2 mg/kg^−1/min^−1
[2]; Kinoshita, acarbose 300 mg daily, 6 months, euglycemic hyperinsulinemic clamp, baseline 8.00±1.96
  glucose utilization rate (M value): 9.94±2.35 mg/kg^−1/min^−1
[2]; Meneilly, acarbose 12 months, final 20 min of 2 h hyperglycemic clamp, baseline 1.68±0.19
  glucose infusion rate: 2.69±0.19 mg/kg^−1/min^−1
[3]; Hanefeld, acarbose 100 mg three times daily, 16 weeks, versus baseline
  24 h area under the curve of insulin: not found to change the 24 h area under the curve of insulin from baseline
[3]; [9]
  change in fasting insulin secretion: -13 ± 4 pmol/L
  change in postprandial insulin secretion: -271 ± 159 pmol/L

## CCc1ccc(CCOc2ccc(CC3SC(=O)NC3=O)cc2)nc1 (centres unmarked) [Pioglitazone]
Insulin resistance (IR); [10]
  IR: 5.4
Insulin resistance (IR); [11]
  IR: 5.4±0.2
Insulin resistance (IR); Langenfield, pioglitazone 45 mg daily, 24 weeks, T2D, before 6.15±4.05
  IR (HOMA-IR): 3.85±1.92
Caloric intake; Smith, pioglitazone 45 mg/day, 24 weeks
  subjective measures of hunger (visual analog scale) and satiety: no effect on hunger and satiety
[4]; Bajaj, pioglitazone 45 mg once daily, 16 weeks, before 33.0±2.8%
  splanchnic glucose uptake: 46.2±5.1%
[4]; Kawamori, pioglitazone 30 mg daily, 12 weeks, before 28.5±19.4%, p=0.010
  rate of splanchnic glucose uptake: 59.4±27.1%
[5]; Gastaldelli
  fasting endogenous glucose production: 12.0±0.6 μmol/min^−1/kg^−1
  fasting GNG contribution: 64.4±3.1%
[5]; Gastaldelli, pioglitazone 45 mg daily, 16 weeks, before 6.5±0.7
  endogenous glucose production during the mixed meal: 5.4±0.7 μmol/min^−1/kg^−1
[5]; Gastaldelli, pioglitazone 45 mg daily, 16 weeks, before 45.6±1.7%
  contribution of GNG to the total rate of appearance during the mixed meal: 41.3±2.6%
[2]; Bajaj, pioglitazone 45 mg daily, 16 weeks, versus 2.9±0.5 before
  glucose infusion rate, 180-420 min of the 75 g oral glucose load-insulin clamp: 5.3±0.5 mg/kg^−1/min^−1
[2]; Bajaj, pioglitazone 45 mg daily, 16 weeks, versus 5.0±0.5 before
  glucose infusion rate during euglycemic insulin clamp (5.6 mmol/liter): 6.9±0.5 mg/kg^−1/min^−1
[3]; Gastaldelli, pioglitazone 45 mg daily, 16 weeks, T2D, baseline 88
  fasting plasma insulin: 81 pmol/L
[3]; Gastaldelli, pioglitazone 45 mg daily, 16 weeks, baseline 268
  plasma insulin during the mixed meal challenge (0-6 h): 248 pmol/L
[3]
  FPI: 13±2 μU/ml
  mean insulin concentration during a 2 h OGTT: no change in mean insulin concentration
[3]; Miyazaki, pioglitazone 7.5-45 mg, 26 weeks
  reduction of fasting plasma insulin concentrations: 15-25%

## CN(CCOc1ccc(CC2SC(=O)NC2=O)cc1)c1ccccn1 (centres unmarked) [Rosiglitazone]
Insulin resistance (IR); [10]
  IR: 4.7
Insulin resistance (IR); [11]
  IR: 4.8±0.2
Caloric intake; Strowig and Raskin, rosiglitazone 4 mg twice daily, week 32, baseline 2066.4±589.2
  mean caloric intake: 1994.9±726.5 calories/day
[6]
  HGU uptake: 0.40
[4]; Iozzo, metformin 2000 mg daily, rosiglitazone 8 mg daily, 26 weeks, PET [18F]FDG, insulin clamp
  increase in HGU, placebo-subtracted value: +0.007±0.004 μmol/kg^−1/min^−1
[4]; Iozzo, rosiglitazone 4 mg twice daily, 26 weeks, insulin clamp and PET
  increase in HGU versus placebo: +0.007 μmol/min^−1/kg^−1
[5]; Gastaldelli
  fasting endogenous glucose production: 16.3±0.6 μmol/min^−1/kg^−1
  fasting GNG contribution: 59±3%
[7]
  PGU: 0.70
[2]; Tiikkainen, rosiglitazone 4 mg twice daily, 16 weeks, glycemia ~8 mmol/liter, before 0.10±0.02
  glucose disposal rate: 0.17 mg/kg^−1/min^−1
[3]
  FPI: 13±1 μU/ml
  mean insulin concentration during a 2 h OGTT: 36±4 μU/ml

## Cc1c(C)c2c(c(C)c1O)CCC(C)(COc1ccc(CC3SC(=O)NC3=O)cc1)O2 (centres unmarked) [Troglitazone]
Insulin resistance (IR); Yatagai, troglitazone 400 mg daily, 12 weeks, before 5.7±0.7
  IR (HOMA-IR): 4.5±0.8
Caloric intake; Cominancini, troglitazone 400 mg daily, 2 weeks, healthy volunteers
  changes in carbohydrate or total caloric intake: not associated with changes in carbohydrate or total caloric intake
[5]; [12]
  endogenous glucose production: no significant difference
[2]; Inzucchi, troglitazone 400 mg daily, 12 weeks, final hour of hyperinsulinemic-euglycemic clamp, before 172
  glucose disposal rate: 265 mg/m^−2/min^−1
[3]; [12]
  fasting and postprandial plasma insulin concentrations: slightly, but not significantly, reduced
[3]; Yatagai, troglitazone 400 mg daily, 12 weeks, T2D, before 14.3±2.1
  FPI concentration: 12.9±2.6 μU/ml
